Assay results taken from the supplement of paper PMC9578143, “Small-Molecule Ebselen Binds to YTHDF Proteins Interfering with the Recognition of N^6-Methyladenosine-Modified RNAs” (ACS Pharmacology & Translational Science, 2022).
Some of the results follow. Part of the spread comes from offsets between plates or batches.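 Hits were defined as a z-score below −3.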

Target: T1, YTHDF1 YTH domain (aa 365-554) (UniProt Q9BYJ9)
T1 sequence (whole entry): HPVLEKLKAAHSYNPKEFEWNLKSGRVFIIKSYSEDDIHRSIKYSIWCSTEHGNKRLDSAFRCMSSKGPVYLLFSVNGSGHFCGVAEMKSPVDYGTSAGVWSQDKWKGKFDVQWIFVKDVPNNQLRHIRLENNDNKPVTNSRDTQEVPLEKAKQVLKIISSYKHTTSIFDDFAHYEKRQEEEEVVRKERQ
Experiment: tryptophan fluorescence intensity z-score (mean); higher = higher fluorescence, less quenching (negative = binding / quenching)
Details: 10 µM

Tryptophan fluorescence intensity z-score, inactive:
CN1CCCC(n2nc(Cc3ccc(Cl)cc3)c3ccccc3c2=O)CC1 (stereo not given) (plate: M 9-10) -0.285, O=C(CNC(=O)c1ccc(Cl)cc1)NO (plate: M 11-12) -0.329, CC(=O)N[C@@H](CCC(=O)O)C(=O)O (plate: M 23-24) 0.633, CCCC(=O)Nc1ncnc2c1ncn2[C@@H]1O[C@@H]2COP(=O)(O)O[C@H]2[C@H]1OC(=O)CCC (plate: M 23-24) 0.561, C=CC[C@@H]1/C=C(\C)C[C@H](C)C[C@H](OC)[C@H]2O[C@@](O)(C(=O)C(=O)N3CCCC[C@H]3C(=O)O[C@H](/C(C)=C/[C@@H]3CC[C@@H](O)[C@H](OC)C3)[C@H](C)[C@@H](O)CC1=O)[C@H](C)C[C@@H]2OC (plate: M 9-10) -1.1, CC(=O)OC1CCC23CC1(C)CCC2C(C)(C)CC3OC(C)=O (stereo not given) (plate: M 21-22) 0.243, CC(C)CCC[C@@H](C)[C@H]1CC[C@H]2[C@@H]3CC=C4CC(=O)CC[C@]4(C)[C@H]3CC[C@]12C (plate: M 23-24) 0.543, Cc1ncc([N+](=O)[O-])n1CCO (plate: M 3-4) -0.443, CCN(CC)CC#CCOC(=O)C(O)(c1ccccc1)C1CCCCC1 (stereo not given) (plate: M 11-12) -0.657, OC(CCN1CCCCC1)(c1ccccc1)C1CC2C=CC1C2 (stereo not given) (plate: M 11-12) -0.419, CCN(Cc1ccncc1)C(=O)C(CO)c1ccccc1 (stereo not given) (plate: M 5-6) 0.587, COc1ccc2cc(CCC(C)=O)ccc2c1 (plate: M 9-10) 0.0636, O=C(O)CCC(=O)OC[C@@H](NC(=O)C(Cl)Cl)[C@H](O)c1ccc([N+](=O)[O-])cc1 (plate: M 1-2) 0.559, CCCCCC(C)N (stereo not given) (plate: M 5-6) -0.0199, C[C@H]1[C@@H](O)O[C@@H]2O[C@@]3(C)CC[C@H]4[C@H](C)CC[C@@H]1[C@@]24OO3 (plate: M 21-22) 0.491, COc1ccc(-c2oc3c(CC=C(C)C)c(O[C@@H]4O[C@H](CO)[C@@H](O)[C@H](O)[C@H]4O)cc(O)c3c(=O)c2O[C@@H]2O[C@@H](C)[C@H](O)[C@@H](O)[C@H]2O)cc1 (plate: M 19-20) -0.0139, CCn1cc(C(=O)O)c(=O)c2ccc(C)nc21 (plate: M 5-6) 0.164, C#CCN(C)Cc1ccccc1 (plate: M 3-4) -0.173, CC(=O)O[C@H]1CC[C@@]2(C)[C@H](CC[C@@H]3[C@@H]2CC[C@]2(C)[C@@H]4[C@H](C[C@@H]32)O[C@]2(CC[C@@H](C)CO2)[C@H]4C)C1 (plate: M 13-14) 0.581, Oc1c(I)cc(I)c2cccnc12 (plate: M 3-4) -0.157, CCN(CC)CCNC(=O)c1cc(S(C)(=O)=O)ccc1OC (plate: M 7-8) 0.169, O=C(CCCN1CC=C(n2c(=O)[nH]c3ccccc32)CC1)c1ccc(F)cc1 (plate: M 7-8) 0.114, CC(=O)Oc1ccc2c(c1C(C)C)CCC1C(C)(C)CCC[C@]21C (stereo not given in full) (plate: M 13-14) 0.708, NCCS(=O)(=O)O (plate: M 11-12) -0.533, COc1cc2nc(N3CCN(C(=O)c4ccco4)CC3)nc(N)c2cc1OC (plate: M 5-6) -0.0588, CCn1cc(C(=O)O)c(=O)c2cnc(N3CCNCC3)nc21 (plate: M 23-24) 0.196, Nc1nc(=O)c2[nH]c(=O)cnc2[nH]1 (plate: M 17-18) 0.129, O=c1cc(-c2ccccc2)oc2cc(O)c(O)cc12 (plate: M 17-18) 0.334, Cc1ccc(S(=O)(=O)NC(=O)NN2CC3CCCC3C2)cc1 (stereo not given) (plate: M 23-24) 0.502, O=c1c(O)cccc2cc(O)c(O)c(O)c12 (plate: M 15-16) 0.22, COc1ccc(-c2cc(=O)c3c(O)cc(O)cc3o2)cc1 (plate: M 15-16) 0.277, CC(=O)N[C@@H](CC(=O)N[C@@H](CCC(=O)O)C(=O)O)C(=O)O (plate: M 23-24) 0.173, COc1ccc([C@H]2COc3c(ccc(O)c3OC)C2)c(OC)c1O (plate: M 15-16) 0.334, COc1ccc2c(c1)OCc1c-2oc2cc(OC)ccc12 (plate: M 15-16) -0.0035, CN(C)CCN(Cc1cccs1)c1ccccn1 (plate: M 7-8) 0.251, NC(=O)N1c2ccccc2C=Cc2ccccc21 (plate: M 1-2) 0.18, CCOc1cccc(C(=O)c2ccc(O)c(O)c2O)c1 (plate: M 15-16) -0.177, O=c1cc(-c2ccc(O)cc2)oc2cc(O)cc(O)c12 (plate: M 15-16) -0.024, CC(=O)OCC(COC(C)=O)OC(C)=O (plate: M 5-6) -0.271, O=C(Cn1ccnc1[N+](=O)[O-])NCCO (plate: M 13-14) 0.217, COc1cc2ccc(=O)oc2c(OC)c1OC (plate: M 13-14) 0.3, COc1ccc(-c2cc(=O)c3c(O)cc(O)cc3o2)cc1O (plate: M 19-20) 0.335, CC(C)NCC(O)COc1ccc(COCCOC(C)C)cc1 (stereo not given) (plate: M 11-12) -0.334, O=C1CN2Cc3c(ccc(Cl)c3Cl)N=C2N1 (plate: M 11-12) -0.295, C#CCCCCCCCCCCCC(O)CC(O)CO (stereo not given) (plate: M 21-22) -0.321, CC[C@H]1OC(=O)[C@H](C)[C@@H](O[C@H]2C[C@@](C)(OC)[C@@H](O)[C@H](C)O2)[C@H](C)[C@@H](O[C@@H]2O[C@H](C)C[C@H](N(C)C)[C@H]2O)[C@](C)(O)C[C@@H](C)/C(=N\OCOCCOC)[C@H](C)[C@@H](O)[C@]1(C)O (plate: M 13-14) 0.776, COc1c2ccoc2nc2c(OC)c(OCC(O)C(C)(C)O)ccc12 (stereo not given) (plate: M 19-20) 0.295, O=C([O-])[C@H]1/C(=C/CO)O[C@@H]2CC(=O)N21.[Li+] (plate: M 9-10) -0.109, Nc1nc(=O)c2nc(CNc3ccc(C(=O)N[C@@H](CCC(=O)O)C(=O)O)cc3)cnc2[nH]1 (plate: M 7-8) -0.216, C=CC[S+]([O-])C[C@H](N)C(=O)O (mixture of isomers) (plate: M 19-20) 0.743, CC(=O)N[C@@H](CC(C)C)C(=O)O (plate: M 21-22) 0.93, CC(C)CCC[C@@H](C)[C@H]1CC[C@H]2[C@@H]3CC[C@H]4C[C@H](O)CC[C@]4(C)[C@H]3CC[C@]12C (plate: M 23-24) 0.344, CCOC(=O)[C@H](CCc1ccccc1)N[C@H]1CCc2ccccc2N(CC(=O)O)C1=O (plate: M 9-10) -0.416, CCOC(=O)OC(C)OC(=O)[C@@H]1N2C(=O)[C@@H](NC(=O)[C@H](N)c3ccccc3)[C@H]2SC1(C)C (stereo not given in full) (plate: M 7-8) 0.059, COc1cc(-c2coc3cc(O)c(OC)c(O)c3c2=O)cc(O)c1OC (plate: M 15-16) -0.183, O=C(O)CS (plate: M 21-22) 0.173, O=C(Cc1cccs1)N[C@@H]1C(=O)N2C(C(=O)[O-])=C(C[n+]3ccccc3)CS[C@H]12 (plate: M 13-14) 0.66, C[C@@]12CCc3occc3[C@H]1CC[C@@]13C[C@@H](CC[C@H]12)[C@@](O)(CO)C3 (plate: M 19-20) 0.297, CC(C)(C)NC[C@H](O)COc1nsnc1N1CCOCC1 (plate: M 5-6) -0.0726, C[C@]12CCC(=O)C=C1CC[C@@H]1[C@@H]2[C@@H](O)C[C@@]2(C)[C@H]1CC[C@]2(O)C(=O)COC(=O)CCC(=O)O (plate: M 3-4) -0.479, NC1(C(=O)O)CCCC1 (plate: M 21-22) 0.623, NCCCC[C@H](N[C@@H](CCc1ccccc1)C(=O)O)C(=O)N1CCC[C@H]1C(=O)O (plate: M 7-8) 0.0783, C=C1c2cccc(O)c2C(=O)C2=C(O)[C@]3(O)C(=O)C(C(N)=O)=C(O)[C@@H](N(C)C)[C@@H]3[C@@H](O)[C@H]12 (plate: M 7-8) -0.205, COc1cc2cc3c4cc(OC)c(OC)cc4cc[n+]3c(C)c2cc1OC (plate: M 17-18) -0.0292, Cn1c(=O)c2nc[nH]c2n(C)c1=O (plate: M 5-6) 0.0806, Cc1scc2c1N(C(=O)CN1CCN(C)CC1)c1ccccc1NC2=O (plate: M 23-24) 0.119, CC(=O)c1ccc(S(=O)(=O)NC(=O)NC2CCCCC2)cc1 (plate: M 11-12) 0.424, COc1ccc(CN(CCN(C)C)c2ccccn2)cc1 (plate: M 5-6) -0.0579, CCCNC(C)C(=O)Nc1ccccc1C (stereo not given) (plate: M 9-10) -0.402, Nc1ncn([C@@H]2O[C@H](CO)[C@@H](O)[C@H]2O)c(=O)n1 (plate: M 7-8) 0.223
